Measurements as given in PubChem BioAssay AID248 (DTP/NCI, 2004).
The list is a part of this screen's results and no random one: it gathers tests that were run many times, whatever their T/C, doses with no T/C, and many T/C values between a quarter and a half above the control. Further doses and runs are listed elsewhere. T/C is the treated group as % of the vehicle group. Some doses have a count of surviving animals in place of a T/C: the source holds a T/C of zero for them, seemingly a mark for toxic or unscored doses. Some survivor counts are full or nearly so, which does not show that the dose was tolerated: survival well below the control is almost never listed, so the zero probably covers shortened survival too. Counts of survivors are from the toxicity check (mostly the fifth day) where no day follows; animals may have died later. Schedules are NCI's codes, read here as Q, the interval in days (D) or hours (H), X, the number of doses. Where survival is the endpoint, the PubChem record calls one and a half times the control and up active, and a quarter to a half above the control has no call in these data; cut-offs in other NCI protocols can differ. Some schedules carry Z or #; the key to these is not given.

Test system: L1210 leukemia ip in BDF1 mice, survival T/C
Assay: NCI In Vivo Anticancer Drug Screen. Data for tumor model L1210 Leukemia (intraperitoneal) in B6D2F1 (BDF1) mice
Conditions: T/C endpoint: mean survival time, higher T/C = longer survival
[1] = dose: 200.0 mg/kg/injection, schedule: Q01DX009 (ip), vehicle: Klucel (hydroxypropylcellulose) (HPC)
[2] = dose: 400.0 mg/kg/injection, schedule: Q01DX009 (ip), vehicle: Klucel (hydroxypropylcellulose) (HPC)
[3] = dose: 300.0 mg/kg/injection, schedule: Q01DX001 (ip), vehicle: saline
[4] = dose: 100.0 mg/kg/injection, schedule: Q01DX009 (ip), vehicle: Klucel (hydroxypropylcellulose) (HPC)
[5] = dose: 200.0 mg/kg/injection, schedule: Q01DX009 (ip), vehicle: saline
[6] = dose: 400.0 mg/kg/injection, schedule: Q04DX003 (ip), vehicle: saline with Tween-80
[7] = dose: 400.0 mg/kg/injection, schedule: Q01DX001 (ip), vehicle: saline

C=C/C(C)=C/[C@H](C)C(=O)C[C@H](O)CC1CC(=O)NC(=O)C1
survivor count [1]: 2 of 6 | survivor count [2]: 0 of 6

O=C1C2(Cl)C3(Cl)C4(Cl)C(Cl)(Cl)C5(Cl)[C@]3(Cl)C1(Cl)[C@]5(Cl)C24Cl (some centres not stated)
survivor count (dose: 300.0 mg/kg/injection, schedule: Q01DX001 (ip), vehicle: carboxymethylcellulose (CMC)): 0 of 6

CN(N=O)C(=O)NCCSc1ncnc2nc[nH]c12
T/C (dose: 100.0 mg/kg/injection, schedule: Q01DX Z (ip), vehicle: carboxymethylcellulose (CMC)): 140 % of control

CCCCCCCCC[n+]1cccc(C#N)c1
survivor count [3]: 1 of 6

ClCCn1c(CCl)nc2ccc(Cl)cc21
survivor count [4]: 0 of 6 | survivor count [1]: 0 of 6 | survivor count [2]: 0 of 6

CCC(O)Cc1c[nH]c(=O)[nH]c1=O (configuration not stated)
survivor count [5]: 3 of 6 | survivor count [6]: 0 of 6

NNC(=O)c1ccc(-c2ccc[nH]2)[nH]1
survivor count [3]: 1 of 6

CC1CN(CCCCO)C(=O)NC1=O (configuration not stated)
survivor count [7]: 6 of 6

NNC(=O)c1ccc(Cl)cc1Nc1ccc(F)cc1
survivor count (dose: 100.0 mg/kg/injection, schedule: Q04DX003 (ip), vehicle: saline): 2 of 6 | survivor count (dose: 200.0 mg/kg/injection, schedule: Q01DX001 (ip), vehicle: saline sonified): 0 of 6 | survivor count (dose: 400.0 mg/kg/injection, schedule: Q01DX001 (ip), vehicle: saline sonified): 0 of 6

CCCCCCCCC(C)NCCOC(=O)c1ccc(N)cc1 (configuration not stated)
survivor count (dose: 75.0 mg/kg/injection, schedule: Q01DX001 (ip), vehicle: other): 6 of 6 | survivor count (dose: 150.0 mg/kg/injection, schedule: Q01DX001 (ip), vehicle: other): 3 of 6 | survivor count (dose: 300.0 mg/kg/injection, schedule: Q01DX001 (ip), vehicle: other): 0 of 6

CCN1CC=CCC1
survivor count [5]: 0 of 6 | survivor count (dose: 200.0 mg/kg/injection, schedule: Q04DX003 (ip), vehicle: saline): 1 of 6 | survivor count (dose: 400.0 mg/kg/injection, schedule: Q04DX003 (ip), vehicle: saline): 0 of 6

COc1ccc(NC(=O)Nc2cc(Cl)ccc2OC)cc1
survivor count [4]: 6 of 6 | survivor count [1]: 6 of 6 | survivor count [2]: 6 of 6

Nc1ccc2ccccc2c1N=Nc1ccc(C(O)C(N)CO)cc1 (configuration not stated)
survivor count (dose: 100.0 mg/kg/injection, schedule: Q04DX003 (ip), vehicle: saline with Tween-80): 1 of 6 | survivor count (dose: 200.0 mg/kg/injection, schedule: Q04DX003 (ip), vehicle: saline with Tween-80): 1 of 6 | survivor count [6]: 0 of 6

CC(C)/C=N\NC(=O)c1ccc[n+](C)c1
survivor count (dose: 200.0 mg/kg/injection, schedule: Q01DX009 (ip), vehicle: saline with Tween-80): 3 of 3

O=NN(CCF)C(=O)NC12CC3CC(CC(C3)C1)C2
T/C (dose: 20.0 mg/kg/injection, schedule: Q01DX001 (ip), vehicle: carboxymethylcellulose (CMC)): 128 % of control | survivor count (dose: 375.0 mg/kg/injection, schedule: Q01DX001 (ip), vehicle: carboxymethylcellulose (CMC)): 0 of 6 | survivor count (dose: 500.0 mg/kg/injection, schedule: Q01DX001 (ip), vehicle: carboxymethylcellulose (CMC)): 0 of 6 | survivor count (dose: 750.0 mg/kg/injection, schedule: Q01DX001 (ip), vehicle: carboxymethylcellulose (CMC)): 0 of 6 | survivor count (dose: 1000.0 mg/kg/injection, schedule: Q01DX001 (ip), vehicle: carboxymethylcellulose (CMC)): 0 of 6

Cc1ccc2c(c1)nc1c3ccccc3nc(-c3ccccc3N)n21
survivor count (dose: 400.0 mg/kg/injection, schedule: Q01DX009 (ip), vehicle: saline with Tween-80): 6 of 6

O=C(c1ccccc1)C(Cl)C(=O)c1ccccc1
survivor count (dose: 200.0 mg/kg/injection, schedule: Q04DX003 (ip), vehicle: Klucel (hydroxypropylcellulose) (HPC)): 3 of 6 | survivor count (dose: 400.0 mg/kg/injection, schedule: Q04DX003 (ip), vehicle: Klucel (hydroxypropylcellulose) (HPC)): 1 of 6

O=C(N/N=C\c1ccc(N(CCCl)CCCl)cc1[N+](=O)[O-])c1cccnc1
survivor count [7]: 0 of 4
